The source of these data is the supplement of paper PMC12819154, “High-throughput peptide-centric local stability assay extends protein–ligand identification to membrane proteins, tissues and bacteria” (Nature Structural & Molecular Biology, 2025).

Chains of the proteins cited; added tags and fusions are not shown. Lines headed by an entry give the natural chain unless they say otherwise; changes in a name come on top.
UniProt Q8CHG3: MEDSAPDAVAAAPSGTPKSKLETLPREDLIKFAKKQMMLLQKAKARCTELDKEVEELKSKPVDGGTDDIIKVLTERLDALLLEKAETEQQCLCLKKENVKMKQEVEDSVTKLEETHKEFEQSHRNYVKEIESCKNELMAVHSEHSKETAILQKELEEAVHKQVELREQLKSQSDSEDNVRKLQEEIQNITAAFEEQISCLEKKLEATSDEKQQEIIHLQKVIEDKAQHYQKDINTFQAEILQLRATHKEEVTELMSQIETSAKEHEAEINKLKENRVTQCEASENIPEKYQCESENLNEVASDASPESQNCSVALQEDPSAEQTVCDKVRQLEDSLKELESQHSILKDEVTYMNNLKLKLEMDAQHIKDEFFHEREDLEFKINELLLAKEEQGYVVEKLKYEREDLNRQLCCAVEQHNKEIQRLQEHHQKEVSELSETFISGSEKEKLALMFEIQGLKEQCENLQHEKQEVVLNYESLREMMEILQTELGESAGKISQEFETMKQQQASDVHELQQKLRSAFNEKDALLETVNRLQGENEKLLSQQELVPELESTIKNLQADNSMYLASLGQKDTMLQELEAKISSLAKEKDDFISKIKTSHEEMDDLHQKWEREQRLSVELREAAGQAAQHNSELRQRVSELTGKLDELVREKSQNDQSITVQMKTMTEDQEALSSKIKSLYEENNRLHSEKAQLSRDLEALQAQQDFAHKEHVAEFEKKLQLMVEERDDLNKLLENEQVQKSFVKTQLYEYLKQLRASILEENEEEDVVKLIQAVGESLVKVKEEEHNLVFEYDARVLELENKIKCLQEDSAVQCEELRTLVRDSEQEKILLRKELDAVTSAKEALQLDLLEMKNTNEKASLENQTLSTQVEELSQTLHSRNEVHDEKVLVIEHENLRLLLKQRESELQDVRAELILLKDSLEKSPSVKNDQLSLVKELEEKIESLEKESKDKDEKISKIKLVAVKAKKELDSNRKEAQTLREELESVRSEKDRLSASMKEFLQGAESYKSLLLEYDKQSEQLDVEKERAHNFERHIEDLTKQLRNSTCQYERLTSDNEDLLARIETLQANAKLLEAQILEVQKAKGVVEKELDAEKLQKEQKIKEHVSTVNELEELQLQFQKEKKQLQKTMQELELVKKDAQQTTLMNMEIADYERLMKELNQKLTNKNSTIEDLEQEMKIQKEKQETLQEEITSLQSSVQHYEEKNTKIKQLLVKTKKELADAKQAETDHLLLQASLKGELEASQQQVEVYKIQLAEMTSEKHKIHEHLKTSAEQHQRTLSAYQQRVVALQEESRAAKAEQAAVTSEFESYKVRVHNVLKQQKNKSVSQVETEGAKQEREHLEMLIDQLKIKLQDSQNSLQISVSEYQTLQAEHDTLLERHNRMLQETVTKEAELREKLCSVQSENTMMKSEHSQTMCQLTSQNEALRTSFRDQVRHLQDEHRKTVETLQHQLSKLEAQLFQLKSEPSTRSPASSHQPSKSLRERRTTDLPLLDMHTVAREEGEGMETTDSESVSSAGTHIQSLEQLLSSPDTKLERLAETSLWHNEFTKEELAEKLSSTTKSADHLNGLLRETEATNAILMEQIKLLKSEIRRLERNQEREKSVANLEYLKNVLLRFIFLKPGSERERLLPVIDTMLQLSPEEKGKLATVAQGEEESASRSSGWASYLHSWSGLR
UniProt Q8K0V4, whole entry: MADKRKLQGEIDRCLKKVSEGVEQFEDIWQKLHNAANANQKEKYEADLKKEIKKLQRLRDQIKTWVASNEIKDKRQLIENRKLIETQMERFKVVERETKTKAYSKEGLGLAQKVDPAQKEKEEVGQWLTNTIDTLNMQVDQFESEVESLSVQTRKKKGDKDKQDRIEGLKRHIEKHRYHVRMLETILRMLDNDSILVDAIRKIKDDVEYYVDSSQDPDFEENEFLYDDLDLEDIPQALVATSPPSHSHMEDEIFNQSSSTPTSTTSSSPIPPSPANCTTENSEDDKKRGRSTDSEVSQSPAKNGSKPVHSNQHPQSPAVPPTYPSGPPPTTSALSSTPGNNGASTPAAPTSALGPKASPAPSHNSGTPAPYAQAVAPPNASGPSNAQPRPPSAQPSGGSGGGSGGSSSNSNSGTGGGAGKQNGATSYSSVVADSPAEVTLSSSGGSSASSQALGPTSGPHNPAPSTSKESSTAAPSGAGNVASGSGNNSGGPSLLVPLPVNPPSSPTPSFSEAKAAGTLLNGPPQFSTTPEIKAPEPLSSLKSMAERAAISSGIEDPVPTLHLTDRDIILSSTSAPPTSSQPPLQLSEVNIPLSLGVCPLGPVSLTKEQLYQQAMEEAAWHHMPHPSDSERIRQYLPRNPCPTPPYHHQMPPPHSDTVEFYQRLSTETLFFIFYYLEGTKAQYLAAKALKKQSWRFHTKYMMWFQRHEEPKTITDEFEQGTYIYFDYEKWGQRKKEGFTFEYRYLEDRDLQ
UniProt Q8CFE6: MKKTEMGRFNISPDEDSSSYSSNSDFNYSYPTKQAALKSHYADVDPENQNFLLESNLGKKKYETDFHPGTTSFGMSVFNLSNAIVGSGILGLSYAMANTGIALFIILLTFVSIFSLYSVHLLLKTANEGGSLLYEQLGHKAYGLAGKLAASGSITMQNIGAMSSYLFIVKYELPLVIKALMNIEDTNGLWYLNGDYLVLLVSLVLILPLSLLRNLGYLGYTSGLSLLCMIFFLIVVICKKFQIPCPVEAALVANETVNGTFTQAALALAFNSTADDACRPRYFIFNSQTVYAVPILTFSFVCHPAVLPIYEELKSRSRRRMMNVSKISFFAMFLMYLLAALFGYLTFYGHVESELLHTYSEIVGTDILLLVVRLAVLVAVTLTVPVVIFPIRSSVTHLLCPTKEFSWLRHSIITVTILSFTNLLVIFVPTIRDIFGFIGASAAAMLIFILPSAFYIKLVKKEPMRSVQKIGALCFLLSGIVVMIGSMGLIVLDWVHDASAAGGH
UniProt Q8CFT2, whole entry: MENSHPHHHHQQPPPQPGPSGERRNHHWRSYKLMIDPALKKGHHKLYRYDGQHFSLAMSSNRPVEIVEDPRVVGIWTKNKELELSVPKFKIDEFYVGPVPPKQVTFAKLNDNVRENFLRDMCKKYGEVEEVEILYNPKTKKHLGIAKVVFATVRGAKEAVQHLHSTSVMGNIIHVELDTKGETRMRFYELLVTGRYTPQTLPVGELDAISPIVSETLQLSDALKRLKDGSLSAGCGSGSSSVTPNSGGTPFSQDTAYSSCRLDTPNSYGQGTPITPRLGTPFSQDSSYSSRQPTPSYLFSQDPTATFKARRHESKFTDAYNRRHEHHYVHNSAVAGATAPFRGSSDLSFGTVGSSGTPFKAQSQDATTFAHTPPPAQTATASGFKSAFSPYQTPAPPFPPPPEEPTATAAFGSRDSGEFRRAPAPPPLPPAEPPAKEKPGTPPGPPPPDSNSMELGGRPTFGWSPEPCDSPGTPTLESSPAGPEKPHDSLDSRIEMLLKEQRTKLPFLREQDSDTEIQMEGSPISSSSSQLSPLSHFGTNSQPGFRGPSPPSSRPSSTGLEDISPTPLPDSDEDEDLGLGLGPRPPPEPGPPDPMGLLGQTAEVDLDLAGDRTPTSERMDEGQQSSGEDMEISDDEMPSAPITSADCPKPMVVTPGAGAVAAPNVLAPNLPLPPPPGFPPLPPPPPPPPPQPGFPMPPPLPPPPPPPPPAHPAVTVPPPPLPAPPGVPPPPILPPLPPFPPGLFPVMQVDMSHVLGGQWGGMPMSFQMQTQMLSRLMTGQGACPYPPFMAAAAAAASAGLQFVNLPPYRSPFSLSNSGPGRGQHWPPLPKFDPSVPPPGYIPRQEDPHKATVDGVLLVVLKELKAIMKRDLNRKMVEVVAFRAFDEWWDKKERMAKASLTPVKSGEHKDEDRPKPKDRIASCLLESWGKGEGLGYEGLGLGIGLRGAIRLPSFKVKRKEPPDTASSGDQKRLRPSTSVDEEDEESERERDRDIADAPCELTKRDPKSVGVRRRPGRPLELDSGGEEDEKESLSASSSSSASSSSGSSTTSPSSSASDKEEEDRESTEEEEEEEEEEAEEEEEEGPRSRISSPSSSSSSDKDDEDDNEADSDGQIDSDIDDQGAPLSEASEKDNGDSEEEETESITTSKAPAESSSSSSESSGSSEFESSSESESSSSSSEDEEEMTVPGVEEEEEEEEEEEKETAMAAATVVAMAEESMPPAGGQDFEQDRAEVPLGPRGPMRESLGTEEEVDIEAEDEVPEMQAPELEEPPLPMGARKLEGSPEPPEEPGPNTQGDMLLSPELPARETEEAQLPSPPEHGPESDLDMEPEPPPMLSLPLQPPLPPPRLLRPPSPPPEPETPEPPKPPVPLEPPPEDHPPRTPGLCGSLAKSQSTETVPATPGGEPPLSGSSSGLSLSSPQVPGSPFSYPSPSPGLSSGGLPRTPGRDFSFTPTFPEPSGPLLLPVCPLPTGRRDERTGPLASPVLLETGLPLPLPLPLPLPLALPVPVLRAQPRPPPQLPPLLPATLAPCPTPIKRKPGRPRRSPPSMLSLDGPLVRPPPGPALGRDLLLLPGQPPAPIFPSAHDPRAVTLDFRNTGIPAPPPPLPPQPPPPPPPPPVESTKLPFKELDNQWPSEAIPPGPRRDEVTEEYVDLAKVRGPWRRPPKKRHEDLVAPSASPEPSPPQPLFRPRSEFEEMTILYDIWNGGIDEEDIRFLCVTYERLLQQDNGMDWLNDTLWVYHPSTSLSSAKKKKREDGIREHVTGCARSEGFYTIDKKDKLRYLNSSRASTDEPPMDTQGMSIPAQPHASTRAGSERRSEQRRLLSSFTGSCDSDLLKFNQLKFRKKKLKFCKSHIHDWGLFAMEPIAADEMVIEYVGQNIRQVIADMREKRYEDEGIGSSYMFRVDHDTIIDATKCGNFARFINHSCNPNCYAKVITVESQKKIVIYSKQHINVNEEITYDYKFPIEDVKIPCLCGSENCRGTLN
UniProt Q8CDM1: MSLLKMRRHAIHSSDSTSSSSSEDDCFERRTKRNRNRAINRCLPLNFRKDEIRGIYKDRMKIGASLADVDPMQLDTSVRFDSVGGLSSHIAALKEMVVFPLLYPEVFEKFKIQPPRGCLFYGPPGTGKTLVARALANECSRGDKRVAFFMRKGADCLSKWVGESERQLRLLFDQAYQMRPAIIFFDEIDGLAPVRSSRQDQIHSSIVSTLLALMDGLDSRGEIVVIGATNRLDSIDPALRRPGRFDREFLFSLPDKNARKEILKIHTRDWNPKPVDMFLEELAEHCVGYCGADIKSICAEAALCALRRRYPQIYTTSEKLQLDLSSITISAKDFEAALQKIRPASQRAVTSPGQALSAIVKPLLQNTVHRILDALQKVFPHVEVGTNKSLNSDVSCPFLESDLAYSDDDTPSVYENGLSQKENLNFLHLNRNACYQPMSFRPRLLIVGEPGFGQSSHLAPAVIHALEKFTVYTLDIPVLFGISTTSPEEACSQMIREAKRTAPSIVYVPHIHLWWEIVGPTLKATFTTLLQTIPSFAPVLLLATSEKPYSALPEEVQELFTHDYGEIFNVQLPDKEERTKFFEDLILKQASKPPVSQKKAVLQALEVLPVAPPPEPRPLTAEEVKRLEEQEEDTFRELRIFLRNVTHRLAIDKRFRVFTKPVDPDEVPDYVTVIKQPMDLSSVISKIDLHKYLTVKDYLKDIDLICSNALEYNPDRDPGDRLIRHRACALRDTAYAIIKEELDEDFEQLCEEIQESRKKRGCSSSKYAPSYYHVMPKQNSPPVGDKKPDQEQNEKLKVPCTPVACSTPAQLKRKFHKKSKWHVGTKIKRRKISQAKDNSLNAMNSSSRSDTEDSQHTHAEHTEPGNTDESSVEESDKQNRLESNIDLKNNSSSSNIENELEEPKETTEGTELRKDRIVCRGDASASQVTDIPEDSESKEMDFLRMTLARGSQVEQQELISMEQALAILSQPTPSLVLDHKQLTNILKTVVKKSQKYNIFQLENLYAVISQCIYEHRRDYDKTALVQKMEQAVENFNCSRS
UniProt Q8CF98: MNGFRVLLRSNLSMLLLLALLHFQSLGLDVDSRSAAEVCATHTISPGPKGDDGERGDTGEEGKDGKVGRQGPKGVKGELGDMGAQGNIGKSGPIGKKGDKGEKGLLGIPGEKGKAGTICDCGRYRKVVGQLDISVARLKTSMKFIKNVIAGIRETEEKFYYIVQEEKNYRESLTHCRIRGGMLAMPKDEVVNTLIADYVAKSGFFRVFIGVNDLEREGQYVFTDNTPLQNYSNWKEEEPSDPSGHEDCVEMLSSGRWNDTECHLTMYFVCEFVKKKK
UniProt Q8CB96: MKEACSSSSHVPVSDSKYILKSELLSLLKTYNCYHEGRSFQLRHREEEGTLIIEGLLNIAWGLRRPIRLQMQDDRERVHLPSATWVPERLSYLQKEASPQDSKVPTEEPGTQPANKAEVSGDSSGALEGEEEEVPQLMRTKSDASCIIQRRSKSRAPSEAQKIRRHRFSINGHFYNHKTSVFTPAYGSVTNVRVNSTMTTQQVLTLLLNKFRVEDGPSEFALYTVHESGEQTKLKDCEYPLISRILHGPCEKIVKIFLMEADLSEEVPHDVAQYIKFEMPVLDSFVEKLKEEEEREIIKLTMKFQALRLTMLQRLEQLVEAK

The list shows a part of the results. Most values lie at the level of the controls, where differences are scatter.

Compound in the experiment: CN[C@@H]1C[C@H]2O[C@@](C)([C@@H]1OC)n1c3ccccc3c3c4c(c5c6ccccc6n2c5c31)C(=O)NC4 [staurosporine]
Briefly: log2 fold change of tryptic peptide abundance, ligand vs vehicle (limited proteolysis) (log2 ratio); higher = more trypsin-susceptible (destabilized). The note with it: ligand concentration: 20 uM; sample: mouse liver crude lysate; replicate design: treated separately.
Consider “UniProt Q8CIE4 (peptide sequence: SGGGPLEGLR, peptide start residue: 196)”, for which the log2 fold change was -0.464. For the target “UniProt Q8CIE0 (peptide sequence: KQESFSLDQR, peptide start residue: 230)”, the log2 fold change was -0.194. For “UniProt Q8K021 (peptide sequence: EREMQNLSQHGR, peptide start residue: 105)”, the log2 fold change was found to be 0.211. In the case of “UniProt Q8CHP8 (peptide sequence: AVVVGFDPHFSYMK, peptide start residue: 167)” it was -0.463. The value for “UniProt Q8CCC3 (peptide sequence: DAPREGSFR, peptide start residue: 135)” was 0.38. For the target “UniProt Q8JZS6 (peptide sequence: VEFHEPETWWK, peptide start residue: 491)”, the log2 fold change is -0.439. Regarding “UniProt Q8JZZ0 (peptide sequence: AESFALTMK, peptide start residue: 417)”, the log2 fold change is -0.161. The value for “UniProt Q8CDD8 (peptide sequence: FGNSGLGFGGGAHSQAPEK, peptide start residue: 100)” was 0.264; that for “UniProt Q8CBE3 (peptide sequence: QVVTASWDR, peptide start residue: 297)” was -0.36. In the case of “UniProt Q8JZX4 (peptide sequence: QSTVLAPVIDLKR, peptide start residue: 47)” it was -0.103; in that of “UniProt Q8CIK8 (peptide sequence: HSDIVVIYAR, peptide start residue: 337)”, -0.151.

Take “UniProt Q8K0U4 (peptide sequence: FHSFGYAAR, peptide start residue: 111)”: the log2 fold change came out at 0.24.

As to “UniProt Q8CHG3 (peptide sequence: NSTCQYER, peptide start residue: 1048)”, the log2 fold change came out at 0.68.

Turning to “UniProt Q8K0V4 (peptide sequence: TWVASNEIK, peptide start residue: 64)”, the log2 fold change was -0.215.

Consider “UniProt Q8CCF0 (peptide sequence: YFSSMAEFLK, peptide start residue: 479)”, for which the log2 fold change was -0.0785. Consider “UniProt Q8CI08 (peptide sequence: DDSWKDGCY, peptide start residue: 573)”, for which the log2 fold change worked out at 0.567. In the case of “UniProt Q8CFE6 (peptide sequence: KEPMRSVQK, peptide start residue: 461)” it was 0.143; in that of “UniProt Q8CFT2 (peptide sequence: GQHWPPLPK, peptide start residue: 822)”, -0.199; in that of “UniProt Q8CGU1 (peptide sequence: EKDSSLVQLSESKR, peptide start residue: 457)”, 0.466. Take “UniProt Q8CDM1 (peptide sequence: FDSVGGLSSHIAALK, peptide start residue: 80)”: the log2 fold change is -0.478.

In the case of “UniProt Q8CF98 (peptide sequence: AGTICDCGR, peptide start residue: 115)”, the log2 fold change was -0.185.

For the target “UniProt Q8CE46 (peptide sequence: SFPGQHHSAGNPDSAITVR, peptide start residue: 262)”, the log2 fold change came out at 0.462. In the case of “UniProt Q8CDD9 (peptide sequence: EKEAALEELR, peptide start residue: 739)” it was -0.36. In the case of “UniProt Q8CB96 (peptide sequence: SELLSLLK, peptide start residue: 22)” it was -0.209. The value for “UniProt Q8CB87 (peptide sequence: ERGFVTR, peptide start residue: 59)” was -0.0416.
